# Primary screen of a compound library

Chains of the proteins cited; added tags and fusions are not shown.
UniProt P9WFT3, whole entry: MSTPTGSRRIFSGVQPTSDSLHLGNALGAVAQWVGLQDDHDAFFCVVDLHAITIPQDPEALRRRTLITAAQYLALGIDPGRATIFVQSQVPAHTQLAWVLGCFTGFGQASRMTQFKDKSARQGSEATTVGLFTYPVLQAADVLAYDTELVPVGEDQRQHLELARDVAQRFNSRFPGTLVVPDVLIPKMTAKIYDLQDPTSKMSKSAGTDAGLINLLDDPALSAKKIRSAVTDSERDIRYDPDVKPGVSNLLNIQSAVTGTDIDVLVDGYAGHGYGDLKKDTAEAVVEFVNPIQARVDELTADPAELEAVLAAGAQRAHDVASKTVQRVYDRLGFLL

MtTrpRS: 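Tryptophan-tRNA ligase, Mycobacterium tuberculosis (UniProt P9WFT3). Enzyme assay of tryptophanyl-tRNA synthetase; the read-out is not stated. Concentration: 10 µM. Higher most likely means stronger inhibition; the record gives no direction and few retests gave an IC50. Of about 65,000 compounds tested this way, about 64 (0.098%) reached 50% or more in at least one test.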
Leishmania in macrophages: 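Cell assay of Leishmania donovani living inside macrophages; the read-out is not stated. Concentration: 30 µM. The record gives no direction; compounds that gave an IC50 in retests scored well above the rest, so higher reads as stronger inhibition. About 69,000 compounds were tested under these conditions; 1.5% (about 1,000) showed 50% or more at least once.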

Results are given as percent effect. The record does not define 0% and 100%; most values in the screen are far below 50% and negative numbers occur (in some assays of this library far below -100). Compounds were drawn at random from those tested, without regard to their results. Two or more numbers in one place are separate tests of the same structure; such repeats can differ widely. A dash means the value is not listed here; it may have been measured.

| SMILES | MtTrpRS | Leishmania in macrophages |
|---|---|---|
| `[H][C@@]12CCN(C(=O)c3c(C)noc3C)C[C@@]1([H])O[C@H](c1ccncn1)C2` | - | 9.795% |
| `CC(C(=O)NC1CC1)S(=O)(=O)Cc1nc(Cc2ccccc2)no1` (stereo not given) | -2.252% | 4.375% |
| `O=C1CCCN1c1cccc(CNCc2nc(C3CC3)no2)c1` | 0% | 29.23% |
| `Cc1ccc2c(c1)CCC2NCc1c(C)nn(CCO)c1C.Cl` (stereo not given) | - | 14.88% |
| `[H][C@@]12CN(C(=O)CC3CC3)C[C@]1([H])C(=O)N(CC1CC1)C2` | - | -6.054% |
| `CC(=O)N1CCC2(CC1)C(=O)N(CC1CCN(C)CC1)c1ccccc12` | -7.413% | - |
| `CCCc1cc(CNc2cc(CCC)nc3ccnn23)on1` | 2.717% | 2.107% |
| `O=C(C1CCC1)N1CCc2[nH]cnc2C12CCN(C1CCOCC1)CC2` | -5.651% | 14.54% |
| `CNC(=O)c1cccc(NC(=O)NCc2ccc(SC)cc2)c1C` | 0.6791% | -0.214% |
| `[H][C@]12C[C@H](NC(=O)c3ccnn3C)[C@@]1([H])CN(S(=O)(=O)c1ccc(C)cc1)C2` | - | 21.78% |
| `Cc1ccc(CN2CCN(C3CCC3)CC2CCO)o1` (stereo not given) | -6.274% | 19% |
| `[H][C@@]12CS(=O)(=O)C[C@]1([H])N(Cc1ccc(OC)c(C)c1)CCN2CC1CC1` | - | -14.15% |
| `O=C(NC1CCCC1)c1ccc(C2CCCNC2)nc1` (stereo not given) | 4.078% | - |
| `O=C(c1ccc(Cl)cc1)N1CCC2(CC1)C(=O)Nc1ccccc12` | 8.241% | 19.71% |
| `CC(=O)N(Cc1noc(C)n1)C1CCN(Cc2ccccn2)C1` (stereo not given) | 1.533% | 27.27% |
| `CC(=O)Nc1ncc(S(=O)(=O)Nc2ccc3c(c2)OCCO3)s1` | 0.2591% | 36.17% |
| `CCOc1cccc(CN2CCCC(Nc3ccc(F)cc3)C2)c1O` (stereo not given) | 0.6156% | 19.52% |
| `CNC(=O)c1sc(C2CCCC2)nc1C` | -6.061% | 2.029% |
| `O=C(NC1CC1)N1CC[C@H]2[C@H]1CCN2c1nncs1` | 3.991% | - |
| `O=C(C1CCCCC1)N1CCCC([C@@H]2C[C@H](C(F)F)n3ncnc3N2)C1` (stereo not given in full) | -1.563% | 0.241% |
| `[H][C@@]12CN(C(=O)[C@H]3CCCO3)C[C@]1([H])C(=O)N(CC(C)C)C2` | - | 7.553% |
| `O=C(c1nnn(-c2ccccc2)n1)N(CCO)CCO` | 4.2% | 2.651% |
| `Cc1n[nH]c(C2CN(C(=O)c3cc(C4CC4)on3)CCO2)n1` (stereo not given) | 18.15% | 9.244% |
| `COc1cccc(-c2n[nH]cc2C(=O)NC(C)c2n[nH]c(C)n2)c1` (stereo not given) | 1.486% | -8.668% |
| `c1cnc(-c2noc(C3CN(Cc4ccc5c(c4)CCO5)C3)n2)nc1` | -0.6839% | - |
| `COc1nc2ccccc2cc1C1CC(=O)Nc2n[nH]c(C3CCC3)c21` (stereo not given) | 3.231% | 32.47% |
| `CS(=O)(=O)NCCCN1CCCCC1c1cc2ccccc2[nH]1` (stereo not given) | -3.226% | -12.79% |
| `CC(O)CN1CCN(C(=O)c2ccc(N3CCCC3)nn2)CC1` (stereo not given) | -2.855% | 17.8% |
| `O=C(CC1CNCCO1)N1CCC(c2cc(N3CCCC3)ncn2)CC1` (stereo not given) | 6.679% | -4.579% |
| `CCOc1ccc(C2SCC(=O)Nc3c2c(=O)[nH]n3C(CC)CC)cc1` (stereo not given) | -8.038% | 15.04% |
| `O=C(C1CCC1)N1CCN(Cc2ccc(F)cc2)[C@H]2CS(=O)(=O)C[C@H]21` | 2.49% | - |
| `O=C(c1cccnc1)N1CCCC2(COCCN(c3ccccc3)C2)C1` (stereo not given) | -6.633% | - |
| `CS(=O)(=O)c1ccc(CNC(=O)N2CCC(c3ccccc3)CC2)cc1` | -3.541% | -1.511% |
| `COc1cccc(CN2C[C@@H](F)[C@@H](OCc3nc4cnccc4[nH]3)C2)c1` | -1.449% | -5.047% |
| `CCO[C@@H]1CO[C@@]2(CCCN(Cc3scnc3C)C2)C1` | -1.891% | - |
| `CCS(=O)(=O)N1CCOC2(COCCN(c3nccs3)C2)C1` (stereo not given) | -2.164% | 20.79% |
| `Cc1c(C(C)NC2CSCCSC2)cnn1-c1ccc(F)cc1F` (stereo not given) | -1.143% | 1.19% |
| `CCCn1cnnc1CNC1CCCC1` | 3.003% | -1.798% |
| `OCCC1CN(c2nc(-c3ccncc3)nc3c2CCNCC3)CCO1` (stereo not given) | -2.694% | 3.061% |
| `Cc1cnn(CC2CCCN2C(=O)c2cccc(CC#N)c2)c1` (stereo not given) | 3.068% | 19.56% |
| `O=C(O)C(F)(F)F.O=C(O)C(F)(F)F.[H][C@@]12CCCO[C@]1([H])[C@@H](OCc1cccnc1)CN2c1nnc(C)s1` | - | -24.51% |
| `Cc1ccc(CN2C(=O)CC[C@]23CC[C@@H](NCC2CCOC2)CC3)cc1.O=C(O)C(F)(F)F` (stereo not given in full) | - | 6.352% |
| `Cc1occc1C(=O)N1Cc2nccn2CC(CN(C)C)C1.O=C(O)C(F)(F)F` (stereo not given) | - | 18.42% |
| `CCNC(=O)NC1CN(CC(=O)NCc2ccccc2C)C[C@@H]1OC` (stereo not given in full) | -4.18% | 16.79% |
| `O=C(c1ccccc1F)N1C[C@H]2CCC[C@@]2(COCc2ccncc2)C1` | 0.7171% | - |
| `CCOC(=O)N1CCC(Nc2cc(CC)nc3c(C)c(C)nn23)CC1` | -0.2546% | 18.01% |
| `O[C@@]1(c2ccccn2)CC[C@H]2CN(Cc3cccc(Cl)c3Cl)C[C@H]21` | 0.5853% | - |
| `CN1CCN(S(=O)(=O)c2cccc(F)c2)Cc2cccnc21.O=C(O)C(F)(F)F` | - | 45.68% |
| `Cc1cc(C2CCCN2CCCc2nc3ccccc3o2)on1` (stereo not given) | -1.174% | 16.15% |
| `CCOc1ccc2cc(C(=O)NCCC(=O)N(C)C)[nH]c2c1` | 2.922% | 11.81% |
| `CC(Cn1cccn1)NCCS(=O)(=O)c1ccccc1` (stereo not given) | 3.457% | 24.9% |
| `CC(C)OCCS(=O)(=O)c1ccccc1C#N` | 15.4% | 4.247% |
| `O=C(O)C(F)(F)F.[H][C@@]12COC[C@]1(COCc1cccnc1)CN(C(=O)c1occc1C)C2` | - | -50% and -12.34% |
| `O=C(c1ccc[nH]1)N1CC2(CCN(c3nccs3)C2)C1` | -1.058% | 0.1998% |
| `O=C(CCCc1nnc(-c2ccccc2)o1)N1CCC1` | -6.619% | 8.771% |
| `Cc1ccc(C(=O)N2Cc3c(CN4CCCCC4)nn(C)c3C2)cc1C` | -1.055% | - |
| `O=C(c1cc2cccc(F)c2[nH]1)N1C[C@@H](O)[C@H](N2CCCC2)C1` | -4.651% | -18.86% |
| `CCn1c(C(=O)N2CCN(CC[S+](C)[O-])CC2)cc2ccccc21` (stereo not given) | -1.74% | -1.15% |
| `CC(=O)NCC(=O)N1CCC2(CC1)NC(=O)CC2c1cnn(C)c1` (stereo not given) | -9.309% | 13.08% |
| `Cc1nc(CN2CCC23CCN(C(=O)c2ccco2)CC3)cs1` | - | 26.24% |
| `CCCn1ccnc1CN1CCN(C2CCOCC2)CC(C(N)=O)C1` (stereo not given) | - | 3.613% |
| `Cc1cnc(-c2nc(C3CCN(Cc4ccccc4O)CC3)no2)cn1` | -3.776% | 19.74% |
| `O=C(NCc1cncc2c1CCN(Cc1cccc(F)c1)C2)C1CC1` | 0.9046% | - |
| `CCc1[nH]c2c(CNc3nccc(N)n3)cc(C)cc2c1C` | 1.61% | 21.52% |
| `c1cc(N2CCC(c3nnc(Cn4ccnc4)n3C3CC3)CC2)ccn1` | -1.783% | 10.16% |
| `O=C(O)C(F)(F)F.O=C(O)C(F)(F)F.[H][C@@]12CN(Cc3cccs3)C[C@]1([H])C(=O)N(CCN1CCCC1)C2` | - | -2.159% |
| `CCOc1ncccc1C(=O)N1CCCC(c2nncn2C)C1` (stereo not given) | -4.89% | 22.6% |
| `COc1ccc(CCNC2CCCN(c3ccc(C)nn3)C2)cc1` (stereo not given) | -4.277% | -3.94% |
| `O=C(c1cnccn1)N1CC[C@H]2C[C@@H](c3ccncn3)O[C@@H]2C1` | -1.918% | - |
| `CCN1C(=O)C2(CCOCC2)c2cc(NC(=O)c3cc(C)n[nH]3)ccc21` | -2.169% | 7.521% |
| `O=S(=O)(NC1CCOC1)c1ccc(C(F)(F)F)nc1` (stereo not given) | 1.224% | 6.133% |
| `Cc1cnccc1-c1cnn(CCNC(=O)c2ccncc2)c1C1CC1` | 19.28% | - |
| `O=C(CCn1cncn1)Nc1ccc(F)cc1OCC1CC1` | 2.584% | 19.47% |

Data taken from ChEMBL document CHEMBL3988442, “University of Dundee, Small-Polar-MMV Screening Library” (2021).